Data as given in article doi:10.1101/265876.
Results are given in words; binding and its absence hold for the method and conditions named. Binding seen in cells or lysates may run through a third protein. Here binding means that the protein was enriched with, or labelled near, the bait; the list need not be complete. Tags and fused reporters may be left off the sequences shown.

T1: SPR-5 tagged with GFP and HA (spr-5::GFP::HA) (C. elegans) (UniProt Q9XWP6)
T1 sequence: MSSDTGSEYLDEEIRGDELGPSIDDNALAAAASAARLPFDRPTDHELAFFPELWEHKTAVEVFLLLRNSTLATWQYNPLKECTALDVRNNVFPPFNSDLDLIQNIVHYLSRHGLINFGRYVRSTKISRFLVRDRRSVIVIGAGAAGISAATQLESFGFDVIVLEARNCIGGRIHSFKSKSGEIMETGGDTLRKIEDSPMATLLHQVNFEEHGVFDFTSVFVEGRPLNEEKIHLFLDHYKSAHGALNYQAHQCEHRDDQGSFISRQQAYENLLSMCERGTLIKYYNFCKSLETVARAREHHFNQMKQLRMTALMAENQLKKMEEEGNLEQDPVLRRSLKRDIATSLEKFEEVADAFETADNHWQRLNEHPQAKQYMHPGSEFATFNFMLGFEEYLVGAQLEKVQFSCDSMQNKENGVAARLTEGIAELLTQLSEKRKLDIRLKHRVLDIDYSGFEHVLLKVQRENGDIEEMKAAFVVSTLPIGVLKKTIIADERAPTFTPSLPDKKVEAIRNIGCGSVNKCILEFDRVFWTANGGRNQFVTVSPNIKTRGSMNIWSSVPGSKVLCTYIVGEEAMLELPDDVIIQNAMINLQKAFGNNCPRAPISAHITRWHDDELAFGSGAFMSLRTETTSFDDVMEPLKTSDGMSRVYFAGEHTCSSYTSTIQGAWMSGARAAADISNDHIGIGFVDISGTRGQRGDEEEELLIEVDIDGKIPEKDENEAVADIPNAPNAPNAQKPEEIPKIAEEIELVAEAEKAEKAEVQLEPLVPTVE

B1: SPR-1, the ortholog of human co-repressor CoREST (protein, UniProt Q18919 1-558)
chain: MDLYDDDGESAQSEKVDVPSEESTIAGPETDIPAETIEENVPEVEENTLLEEDSLVDVDSPRPSQQRSKPSKSKRKRKRSSSGESSAAEPEIDAGAKVKGPLSNTNKEINVGTEFQAKIADLNLNDKACNEDRDDQDELIWNTPETIDDEKLEAFIRESSDRYLIPIDRALYILTINNFNFDSAIAEVARRNELKDVWTDQEITLFENCYQIFGKNFSQIRSALCHRSLQSIVQFYYESKKRVKYLNFVNSKCDDSSSSEETETPSPYPEAIFESMCDNCGEKAENMQINNAMNRPECRACLIYFNQTGVPRPTSLRLVLAERIRNQVSCPDNMKEYMKDFDKLSAQATGSTFQKRIIVKDQCVEYIIDVDKIPSSSCTENGNVGETSSPSAQKTEIQSESDGSGPLIWRHKKTVCMEEIEVLADDSRRKMFEACQHGSKVDIKLVASWKNDMTNLRKRVEQTYYDPDLNPTYLFSHDRVHYSQDWTQLERSQVIRCFNMYGAHFEHIADVIGTKTPDQVYQFYLENQKAIDAADEEFLADMKNPERLADMEEEEDSI
B2: RCOR-1, an ortholog of human REST co-repressors 2 and 3 (RCOR2 and RCOR3) (protein, UniProt Q95Y41 1-564)
chain: MDSYTSSDEDASRKENISDEGLNMLNASPEPMEEDDPEEQAEQEEETSRMARPIRSMRKRETTSGESMGDEDEDLEDEEDEDEEAEAREHHESGAHDTSFSNPLSNVDNLIHVGTEYQAIIQPTAEQLEKEPCRDQQIWAFPDEMNENRLTEYISEATGRYQLPIDRALFILNKQSNDFDAAMVQAMRRKEIHDDWTAEEISLFSTCFFHFGKRFKKIHAAMPQRSLSSIIQYYYNTKKVQNYKTMINVHLNETDTYDELFKEVNHLERVPSGYCENCNAKSDLLILNRVMSRHECKPCILYFRLMRVPRPASLRALTKRRQRVLCPEYMKIYVYGYLELMEPANGKAIKRLGIGKEKEEDDDIMVVDDCLLRKPSGPYIVEQSIEADPIDENTCRMTRCFDTPAALALIDNIKRKHHMCVPLVWRVKQTKCMEENEILNEEARQQMFRATMTYSRVPKGEIANWKKDMMALKGRFERFTPELDTTATNGNRSGKVRINYGWSPEEKKNAIRCFHWYKDNFELIAELMATKTVEQIKKFYMDNEKLILESIDTYRAELKSKLGK

These molecules were tested against T1, SPR-5 tagged with GFP and HA (spr-5::GFP::HA) (C. elegans) (assay: affinity purification with mass spectrometry).

binding, binds:
FNCM-1, the Fanconi anemia (FA) FANCM homolog in C. elegans (from UniProt P91352)
B1
B2
